Only a part is listed here, and it is no random draw. For part of these data: At the low end of the ranking, values are background and their order means little. The list shows a part of the results. For part of these data: The exact form of the protein is not confirmed.
How the values were obtained:
Test in all cases: DAPPL (digital affinity profiling via proximity ligation, sequencing)
Details in all cases: 10 mM Tris-HCl pH 7.5, 50 mM NaCl, 1 mM DTT, 4% glycerol, room temperature, 30 min; GST-TFs on glutathione beads, 16-mer random dsDNA library, 0.1% …; high values mean tight binding; double strand, one strand shown; scale: fold enrichment (6-mer frequency, TF over GST control)
[1] = molecular target: T1, ELK4 (UniProt P28324-2)
T1 sequence: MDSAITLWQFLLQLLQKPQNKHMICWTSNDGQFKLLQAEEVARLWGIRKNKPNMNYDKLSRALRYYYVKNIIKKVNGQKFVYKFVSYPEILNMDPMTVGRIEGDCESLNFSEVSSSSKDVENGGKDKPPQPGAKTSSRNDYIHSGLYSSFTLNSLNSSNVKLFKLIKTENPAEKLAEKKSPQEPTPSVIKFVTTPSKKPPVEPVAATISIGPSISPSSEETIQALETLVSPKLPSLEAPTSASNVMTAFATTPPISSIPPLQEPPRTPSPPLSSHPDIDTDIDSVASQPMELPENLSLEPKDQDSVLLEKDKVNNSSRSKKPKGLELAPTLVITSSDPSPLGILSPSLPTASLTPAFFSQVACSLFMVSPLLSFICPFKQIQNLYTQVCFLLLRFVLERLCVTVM

The chains behind the UniProt entries cited, without tags or fusion partners. Where a name states a change or a piece, a line headed by the entry shows the natural chain unless it says otherwise.
UniProt P50549: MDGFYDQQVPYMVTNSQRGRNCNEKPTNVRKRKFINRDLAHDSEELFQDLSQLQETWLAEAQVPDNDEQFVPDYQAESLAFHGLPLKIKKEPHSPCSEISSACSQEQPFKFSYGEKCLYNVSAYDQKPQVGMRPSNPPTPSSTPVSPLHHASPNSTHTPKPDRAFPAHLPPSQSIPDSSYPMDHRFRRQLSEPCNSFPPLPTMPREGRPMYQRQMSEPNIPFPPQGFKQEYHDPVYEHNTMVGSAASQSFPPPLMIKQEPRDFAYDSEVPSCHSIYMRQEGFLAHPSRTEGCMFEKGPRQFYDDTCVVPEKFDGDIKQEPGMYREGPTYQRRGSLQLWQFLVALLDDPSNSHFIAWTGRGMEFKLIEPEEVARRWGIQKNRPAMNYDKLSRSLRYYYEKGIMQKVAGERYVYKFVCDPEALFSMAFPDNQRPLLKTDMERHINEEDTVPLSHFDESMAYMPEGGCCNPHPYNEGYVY
UniProt P32519: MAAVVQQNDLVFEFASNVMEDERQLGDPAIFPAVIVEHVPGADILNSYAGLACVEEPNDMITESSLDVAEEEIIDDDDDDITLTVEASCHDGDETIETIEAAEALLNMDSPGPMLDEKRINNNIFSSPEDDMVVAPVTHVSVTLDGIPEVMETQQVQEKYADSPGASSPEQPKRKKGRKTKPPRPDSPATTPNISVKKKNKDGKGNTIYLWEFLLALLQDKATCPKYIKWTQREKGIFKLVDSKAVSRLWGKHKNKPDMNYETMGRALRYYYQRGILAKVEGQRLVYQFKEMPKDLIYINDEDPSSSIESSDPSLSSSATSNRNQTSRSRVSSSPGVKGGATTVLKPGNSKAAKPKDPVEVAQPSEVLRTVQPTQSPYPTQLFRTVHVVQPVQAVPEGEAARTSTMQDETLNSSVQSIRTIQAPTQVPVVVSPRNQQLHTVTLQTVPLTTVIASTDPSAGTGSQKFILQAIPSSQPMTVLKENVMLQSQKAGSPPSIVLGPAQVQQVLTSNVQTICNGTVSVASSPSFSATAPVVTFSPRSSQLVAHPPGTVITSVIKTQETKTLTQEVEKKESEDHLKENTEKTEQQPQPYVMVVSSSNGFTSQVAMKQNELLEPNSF

[2] = molecular target: T2, ETV4 (UniProt P43268)
T2 sequence: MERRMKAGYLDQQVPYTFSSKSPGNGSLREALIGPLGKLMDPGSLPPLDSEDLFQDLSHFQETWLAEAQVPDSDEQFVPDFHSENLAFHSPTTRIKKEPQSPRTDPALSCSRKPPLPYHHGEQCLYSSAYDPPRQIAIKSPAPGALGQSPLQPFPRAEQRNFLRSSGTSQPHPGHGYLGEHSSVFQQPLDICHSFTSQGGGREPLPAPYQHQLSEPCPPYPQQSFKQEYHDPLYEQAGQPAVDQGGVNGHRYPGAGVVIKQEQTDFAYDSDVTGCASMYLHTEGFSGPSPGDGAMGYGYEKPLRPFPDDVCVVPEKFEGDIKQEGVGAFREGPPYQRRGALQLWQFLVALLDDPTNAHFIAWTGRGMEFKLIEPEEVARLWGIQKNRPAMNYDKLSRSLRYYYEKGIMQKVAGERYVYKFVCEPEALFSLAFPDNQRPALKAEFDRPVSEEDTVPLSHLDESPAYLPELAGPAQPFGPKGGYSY

[3] = molecular target: ETV1 (UniProt P50549)
[4] = molecular target: ELF1 (UniProt P32519)
[5] = molecular target: T3, ERF (UniProt P50548)
T3 sequence: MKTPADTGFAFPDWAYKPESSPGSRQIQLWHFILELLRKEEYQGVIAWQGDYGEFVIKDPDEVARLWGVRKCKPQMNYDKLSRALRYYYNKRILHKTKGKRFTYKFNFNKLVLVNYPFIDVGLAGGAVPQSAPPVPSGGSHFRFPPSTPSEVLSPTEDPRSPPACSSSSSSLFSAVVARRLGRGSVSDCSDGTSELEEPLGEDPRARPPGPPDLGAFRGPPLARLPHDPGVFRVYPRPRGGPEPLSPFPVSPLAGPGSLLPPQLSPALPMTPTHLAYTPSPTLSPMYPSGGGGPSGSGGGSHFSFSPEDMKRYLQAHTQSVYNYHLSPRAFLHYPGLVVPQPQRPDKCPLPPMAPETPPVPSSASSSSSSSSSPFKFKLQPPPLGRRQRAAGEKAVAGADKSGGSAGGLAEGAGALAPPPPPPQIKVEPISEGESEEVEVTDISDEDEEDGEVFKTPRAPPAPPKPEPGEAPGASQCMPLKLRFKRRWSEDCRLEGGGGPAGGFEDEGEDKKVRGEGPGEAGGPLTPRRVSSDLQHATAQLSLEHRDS

Row | Sequence | binding signal [1] | binding signal [2] | binding signal [3] | binding signal [4] | binding signal [5]
1 | CAATAT | 1.31 | 1.26 | 1.27 | – | –
2 | AACGTC | 0.959 | 1.09 | 1.11 | 1.05 | 1.01
3 | CTCTTG | 1.52 | 1.4 | 1.41 | – | –
4 | AAGAAA | 1.18 | 1.04 | 1.2 | – | –
5 | TAATGT | 1.19 | 1.1 | 1.16 | – | –
6 | TGGTTC | 1.36 | 1.36 | 1.38 | 1.28 | –
7 | CCTAAA | 1.29 | 1.26 | 1.31 | – | –
8 | GAATAA | 1.04 | 1.06 | 1.03 | – | –
9 | TCTGCT | 1.57 | 1.28 | 1.32 | – | –
10 | TGCGCT | 1.46 | 1.25 | 1.17 | – | –
11 | AAGTCC | 1.25 | 1.25 | 1.26 | – | –
12 | ATGGGT | 1.33 | 1.33 | 1.21 | – | –
13 | AAATGG | 1.5 | 1.5 | 1.5 | – | –
14 | AACATC | 1.41 | 1.44 | 1.43 | – | –
15 | AATAAT | 1.22 | 1.29 | 1.24 | – | –
16 | TCTGCC | 1.59 | 1.41 | 1.36 | – | –
17 | CTAATA | 1.1 | 1.13 | 1.22 | – | 1.27
18 | CCTTTC | 1.64 | 1.63 | 1.5 | – | –
19 | GATTAT | 1.06 | 0.998 | 1.06 | 1.02 | 1.06
20 | AACGTA | 0.98 | 1.04 | 1.06 | – | 1.05
21 | CTCGTA | 1.16 | 1.25 | 1.35 | 1.32 | 1.23
22 | CTTACG | 0.867 | 1.05 | 0.977 | – | –
23 | CTCTAA | 1.22 | 1.28 | 1.32 | – | –
24 | GAACAT | 0.978 | 1 | 0.989 | – | –
25 | ACGATC | 0.964 | 1.05 | 1.05 | 1.09 | 1.16
26 | AATCCC | 1.28 | 1.37 | 1.42 | – | –
27 | GACCTT | 1.61 | 1.69 | 1.48 | – | –
28 | CGTCTC | 1.49 | 1.37 | 1.43 | – | 1.49

Reprinted: entries 6–7
Row | Sequence | binding signal [1] | binding signal [2] | binding signal [3] | binding signal [4] | binding signal [5]
6 | TGGTTC | 1.36 | 1.36 | 1.38 | 1.28 | –
7 | CCTAAA | 1.29 | 1.26 | 1.31 | – | –
